Test results published in US20250186503A1, “METHODS AND COMBINATIONS FOR TREATMENT AND T CELL MODULATION” (Juno Therapeutics, Inc., priority 2018, published 2025).

Test system: anti-BCMA CAR-expressing T cells
Test: RNA-seq and ATAC-seq of anti-BCMA CAR-expressing T cells
Assay type: cell-based, human
Details: 1 μM

Nc1cccc2c1CN(C1CCC(=O)NC1=O)C2=O (stereo not drawn) [lenalidomide, 3-(4-amino-1-oxo-1,3-dihydro-2H-isoindol-2-yl)piperidine-2,6-dione]
genes upregulated (RNA-seq) (24 hours of stimulation): 214 genes
change in chromatin accessibility (ATAC-seq) (7 days of stimulation): 2804 peaks
genes changed (RNA-seq) (7 days of stimulation): 583 genes
